# Test results reported in PubChem BioAssay AID1345085 (National Center for Advancing Translational Sciences (NCATS), 2018).
# Inconclusive results, whose numbers are uncertain, are shown with a selection of clear calls. Where the call is inconclusive, the potency comes from a doubtful curve fit. The source made the active and inactive calls. Calls come from the whole dose curve; as a rule, active = well fitted cell-killing curve with a large enough effect; inconclusive = small, poorly fitted or top-dose-only effect, or effect the other way; inactive = no such curve, though single readings can be large or run the other way.
# Test system: CASKI
# Assay: Confirmatory qHTS for gynecologic anti-cancer compounds from libraries of approved drugs and bioactive compounds; note: nearly all actives have a fitted effect of over 55% in size
# Conditions: gynecologic cancer cell panel viability, ATPlite luminescence, 48 h; series mostly up to 57.6 µM
# In short: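 Viability is measured as ATP-dependent luciferase light using ATPlite, read 15 min after reagent addition at room temperature. Compounds, in DMSO, span 57.5 uM down to 0.977 nM over 11 threefold steps for 48 h.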
# Potency is the fitted concentration of half-maximal effect.
row,SMILES,Potency
1,CN(C)CCC(CSc1ccccc1)Nc1ccc(S(=O)(=O)NC(=O)c2ccc(N3CCN(Cc4ccccc4-c4ccc(Cl)cc4)CC3)cc2)cc1[N+](=O)[O-] (stereo not drawn),active: 3.85 µM
2,CCCS(=O)c1ccc2nc(NC(=O)OC)[nH]c2c1 (stereo not drawn),"inconclusive: 30.6 µM [cytotoxic, partial curve, poor fit]"
3,Cc1cc(Nc2nc(N[C@@H](C)c3ncc(F)cn3)ncc2Cl)n[nH]1,"inconclusive: 10.9 µM [cytotoxic, partial curve]"
4,COc1ccc(-c2cc3nccn3c(Nc3ncccc3C(N)=O)n2)cc1OC,inactive
5,Nc1ccccc1NC(=O)c1ccc(CNc2nccc(-c3cccnc3)n2)cc1,active: 8.63 µM
6,CCC1=CC2CN(C1)Cc1c([nH]c3ccccc13)[C@@](C(=O)OC)(c1cc3c(cc1OC)N(C)[C@H]1[C@@](O)(C(=O)OC)[C@H](OC(C)=O)[C@]4(CC)C=CCN5CC[C@]31[C@@H]54)C2 (stereo partly drawn),inactive
7,CS(=O)(=O)c1ccc(C(=O)Nc2ccc(Cl)c(-c3ccccn3)c2)c(Cl)c1,"inconclusive: 0.122 µM [rising, partial curve, poor fit]"
8,O=C(Nc1cccnc1)N1CCC(Cc2cccc(Oc3ccc(C(F)(F)F)cn3)c2)CC1,active: 12.2 µM
9,O=C(O)c1ccc(Nc2ncc3c(n2)-c2ccc(Cl)cc2C(c2c(F)cccc2F)=NC3)cc1,"inconclusive: 12.2 µM [cytotoxic, full curve]"
10,O=C(NCC(O)CO)c1ccncc1Nc1ccc(I)cc1F (stereo not drawn),"inconclusive: 21.7 µM [cytotoxic, partial curve]"
11,COc1ccc(-c2ccc3c(N4CCOCC4C)nc(N4CCOCC4C)nc3n2)cc1CO (stereo not drawn),inactive
12,O=C1Cc2cc(CCN3CCN(c4nsc5ccccc45)CC3)c(Cl)cc2N1,inactive
13,O=C(NOC[C@H](O)CO)c1ccc(F)c(F)c1Nc1ccc(I)cc1F,"inconclusive: 6.11 µM [cytotoxic, partial curve]"
14,Nc1nc(=S)c2[nH]cnc2[nH]1,"inconclusive: 10.9 µM [cytotoxic, single point]"
15,CN1CCN(c2cccc(Nc3nc4c(-c5ccc(S(C)(=O)=O)cc5)cccn4n3)c2)CC1,inactive
16,CCCCc1nc2cc(/C=C/C(=O)NO)ccc2n1CCN(CC)CC,active: 4.85 µM
17,CC(C)[C@@H](CS(=O)(=O)C(C)C)N1C(=O)[C@@](C)(CC(=O)O)C[C@H](c2cccc(Cl)c2)[C@H]1c1ccc(Cl)cc1,inactive
18,O=c1[nH]c(=O)n([C@H]2C[C@H](O)[C@@H](CO)O2)cc1F,"inconclusive: 3.43 µM [cytotoxic, full curve, poor fit]"
19,COc1cc2nccc(Oc3ccc(NC(=O)C4(C(=O)Nc5ccc(F)cc5)CC4)cc3)c2cc1OC,"inconclusive: 27.3 µM [cytotoxic, partial curve]"
20,C#C[C@]1(O)CC[C@H]2[C@@H]3CCC4=CC(=O)CC[C@@H]4[C@H]3CC[C@@]21CC,inactive
21,CC1(C)[C@@H](O)CC[C@]2(C)[C@H]3C(=O)C=C4[C@@H]5C[C@@](C)(C(=O)O)CC[C@]5(C)CC[C@@]4(C)[C@]3(C)CC[C@@H]12,"inconclusive: 10.9 µM [cytotoxic, single point]"
22,CN(C)C(CCOc1cccc2ccccc12)c1ccccc1 (stereo not drawn),inactive
23,Cc1ccc(C(=O)Nc2ccc(CN3CCN(C)CC3)c(C(F)(F)F)c2)cc1C#Cc1cnc2[nH]ncc2c1,"inconclusive: 7.69 µM [cytotoxic, partial curve, poor fit]"
24,COc1cccc2c1C(=O)c1c(O)c3c(c(O)c1C2=O)C[C@@](O)(C(=O)CO)C[C@@H]3O[C@H]1C[C@H](N)[C@H](O)[C@H](C)O1,active: 8.63 µM
25,COc1ccc(CCC(=O)c2c(O)cc(O[C@@H]3O[C@H](CO)[C@@H](O)[C@H](O)[C@H]3O[C@@H]3O[C@@H](C)[C@H](O)[C@@H](O)[C@H]3O)cc2O)cc1O,inactive
26,Cc1nc(NC(=O)N2CCCC2C(N)=O)sc1-c1csc(C(C)(C)C)n1 (stereo not drawn),"inconclusive: 7.69 µM [cytotoxic, full curve]"
27,O=C(c1ccc(/C=C/c2n[nH]c3ccccc23)cc1)N1CCNCC1,"inconclusive: 21.7 µM [cytotoxic, partial curve]"
28,Nc1ccc(-c2ccc3ncc4ccc(=O)n(-c5cccc(C(F)(F)F)c5)c4c3c2)cn1,active: 1.93 µM

# Quoted from the listing.
# Entry of `O=C(NCC(O)CO)c1ccncc1Nc1ccc(I)cc1F` (stereo not drawn) under Potency: inconclusive: 21.7 µM [cytotoxic, partial curve]
# Entry of `C#C[C@]1(O)CC[C@H]2[C@@H]3CCC4=CC(=O)CC[C@@H]4[C@H]3CC[C@@]21CC` under Potency: inactive
